# Test results from patent US20090169478A1, “In Vivo Imaging and Therapy with Magnetic Nanoparticle Conjugates” (priority 2005, published 2009).
# Some results were stated once for a whole list of compounds, not compound by compound.
# Test system: breast cancer cells MDA-MB-435S
# Test: In vitro uptake of ligand-conjugated SPIONs (Example 10)
# Format: cell-based, human
# Conditions: MDA-MB-435S cells, co-incubation with free peptide ligand
# Method: LHRH−SPIONs and βCG/LH-SPIONs were tested on breast cancer cells MDA-MB-435S, on Chinese Hamster Ovary cells, on rat LH-receptor-transfected Chinese Hamster Ovary cells, and on mouse Sertoli cells. Experiments were conducted in the presence of LHRH, βCG, or neither. […] In addition, we observed that co-incubation with the free peptide ligands blocked the receptors that otherwise enabled the ligand-conjugated SPIONs to enter cells through receptor-mediated endocytosis. The uptake was then primarily via phagocytosis or pinocytosis at a low rate, similar to that for unconjugated SPIONs. The observed uptake was specific; the quantity of iron nanoparticles within the cells was substantially higher for receptor-mediated uptake.
substance,measurement,value
LHRH−SPION: Fe3O4 magnetite nanoparticles covalently bound to LHRH by carbodiimide reaction (Example 3),observed uptake in the presence of LHRH or βCG,40-50 pg Fe/cell
